This is an account of results in patent US10568828B2 (CAREGEN CO., LTD., priority 2016, dated 2020).

This series can be described thus: general procedure: peptide synthesis; chlorotrityl chloride resin (CTL resin, Nova Biochem Cat No. 01-64-0021). To be noted: whole synthesis.

Arg-Arg-Lys-Ile (RRKI) came in with a crude mass of 0.7 g. In addition, the crude yield (scale of the general procedure 700 mg resin) is listed as 90.0%.
